Reference: patent US20190389830A1, “NRF2 ACTIVATOR” (BIOGEN MA INC., priority 2017, published 2019)
Some entries share one result that the patent states for a list of compounds. At least one structure is not confirmed: it was looked up by name or label, or the drawing left a doubt.

System: NRF2
Assay: PathHunter Nuclear Translocation assay (DiscoverX), agonist format
Assay type: cell-based
Details: PathHunter cells, 6 hours at room temperature, 10 concentrations, 30 μM top concentration, normalized to CDDO methyl ester control

Row | SMILES | EC50 [nM]
1 | CC12C=C(C#N)C(=O)C(C)(C)C1(C)OCCC2 (racemic) [Compound 54, 4a,8,8,8a-tetramethyl-7-oxo-3,4,4a,7,8,8a-hexahydro-2H-chromene-6-carbonitrile] | > 10000
2 | CC12C=C(C#N)C(=O)C(C)(C)C1OC=CC2 (racemic) [Compound 55, 4a,8,8-trimethyl-7-oxo-4a,7,8,8a-tetrahydro-4H-chromene-6-carbonitrile] | < 10000
3 | CC12C=C(C#N)C(=O)C(C)(C)C1OCCC2 (single isomer, unassigned; ent1) [Compound 1-Ent1] | < 1000
4 | CC1CCC2(C)C=C(C#N)C(=O)C(C)(C)C2O1 (single isomer, unassigned; ent1) [Compound 2-Ent1] | < 1000
5 | CCC12C=C(C#N)C(=O)C(C)(C)C1OCCC2 (single isomer, unassigned; ent1) [Compound 4-Ent1] | < 1000
6 | CCC12C=C(C#N)C(=O)C(C)(C)C1OC(C)CC2 (single isomer, unassigned; ent1) [Compound 5-Ent1] | < 1000
7 | CCC12C=C(C#N)C(=O)C(C)(C)C1OC(C)CC2 (single isomer, unassigned; ent1) [Compound 6-Ent1] | < 100
8 | CCC1CCC2(C)C=C(C#N)C(=O)C(C)(C)C2O1 (single isomer, unassigned; ent1) [Compound 7-Ent1] | < 1000
9 | CCC1CCC2(C)C=C(C#N)C(=O)C(C)(C)C2O1 (single isomer, unassigned; ent1) [Compound 8-Ent1] | < 100
10 | CCC1CCC2(CC)C=C(C#N)C(=O)C(C)(C)C2O1 (single isomer, unassigned; ent1) [Compound 9-Ent1] | < 1000
11 | CCC1CCC2(CC)C=C(C#N)C(=O)C(C)(C)C2O1 (single isomer, unassigned; ent1) [Compound 10-Ent1] | < 100
12 | CC12C=C(C#N)C(=O)C(C)(C)C1OCCO2 (single isomer, unassigned; ent1) [Compound 11-Ent1] | < 1000
13 | CC12C=C(C#N)C(=O)C(C)(C)C1OC(C1CC1)CC2 (single isomer, unassigned; ent1) [Compound 40-Ent1] | < 1000
14 | CC(C)C1CCC2(C)C=C(C#N)C(=O)C(C)(C)C2O1 (single isomer, unassigned; ent1) [Compound 41-Ent1] | < 100
15 | CC(C)C1CCC2(C)C=C(C#N)C(=O)C(C)(C)C2O1 (single isomer, unassigned; ent1) [Compound 42-Ent1] | < 10000
16 | CC12C=C(C#N)C(=O)C(C)(C)C1OC(Cc1ccccc1)CC2 (single isomer, unassigned; ent1) [Compound 43-Ent1] | < 1000

Row | SMILES | EC50 [nM]
17 | CC12C=C(C#N)C(=O)C(C)(C)C1OC(Cc1ccccc1)CC2 (single isomer, unassigned; ent1) [Compound 44-Ent1] | < 1000
18 | CC1OC2C(C)(C=C(C#N)C(=O)C2(C)C)CC1=O (single isomer, unassigned; ent1) [Compound 45-Ent1] | < 1000
19 | CC12C=C(C#N)C(=O)C(C)(C)C1OCCC2 (single isomer, unassigned; ent2) [Compound 1-Ent2] | < 10000
20 | CCC12C=C(C#N)C(=O)C(C)(C)C1OC(C)CC2 (single isomer, unassigned; ent2) [Compound 5-Ent2] | > 10000
21 | CCC12C=C(C#N)C(=O)C(C)(C)C1OC(C)CC2 (single isomer, unassigned; ent2) [Compound 6-Ent2] | < 10000
22 | CCC1CCC2(C)C=C(C#N)C(=O)C(C)(C)C2O1 (single isomer, unassigned; ent2) [Compound 7-Ent2] | < 1000
23 | CCC1CCC2(C)C=C(C#N)C(=O)C(C)(C)C2O1 (single isomer, unassigned; ent2) [Compound 8-Ent2] | < 1000
24 | CCC1CCC2(CC)C=C(C#N)C(=O)C(C)(C)C2O1 (single isomer, unassigned; ent2) [Compound 9-Ent2] | < 10000
25 | CCC1CCC2(CC)C=C(C#N)C(=O)C(C)(C)C2O1 (single isomer, unassigned; ent2) [Compound 10-Ent2] | < 1000
26 | CC12C=C(C#N)C(=O)C(C)(C)C1OCCO2 (single isomer, unassigned; ent2) [Compound 11-Ent2] | < 10000
27 | CC(C)C1CCC2(C)C=C(C#N)C(=O)C(C)(C)C2O1 (single isomer, unassigned; ent2) [Compound 41-Ent2] | < 10000
28 | CC(C)C1CCC2(C)C=C(C#N)C(=O)C(C)(C)C2O1 (single isomer, unassigned; ent2) [Compound 42-Ent2] | < 1000
29 | CC12C=C(C#N)C(=O)C(C)(C)C1OC(Cc1ccccc1)CC2 (single isomer, unassigned; ent2) [Compound 43-Ent2] | < 1000
30 | CC12C=C(C#N)C(=O)C(C)(C)C1OC(Cc1ccccc1)CC2 (single isomer, unassigned; ent2) [Compound 44-Ent2] | < 10000
31 | CC1OC2C(C)(C=C(C#N)C(=O)C2(C)C)CC1=O (single isomer, unassigned; ent2) [Compound 45-Ent2] | < 10000
